Data taken from patent US20040219615A1.
These are yes or no findings as the source states them, for the method shown.

Molecular target: lamin
Test: yeast two-hybrid test

binding: no binding
B1: clone #84 (protein, UniProt Q99675 1-332, looked up)
chain: MAAVFLVTLYEYSPLFYIAVVFTCFIVTTGLVLGWFGWDVPVILRNSEETQFSTRVFKKQMRQVKNPFGLEITNPSSASITTGITLTTDCLEDSLLTCYWGCSVQKLYEALQKHVYCFRISTPQALEDALYSEYLYQEQYFIKKDSKEEIYCQLPRDTKIEDFGTVPRSRYPLVALLTLADEDDREIYDIISMVSVIHIPDRTYKLSCRILYQYLLLAQGQFHDLKQLFMSANNNFTPSNNSSSEEKNTDRSLLEKVGLSESEVEPSEENSKDCVVCQNGTVNWVLLPCRHTCLCDGCVKYFQQCPMCRQFVQESFALCSQKEQDKDKPKTL
